Experimental data as given in PMC9457825.
These are yes or no findings as the source states them, for the method shown. In cells and extracts the contact can be indirect. Here binding means that the protein was enriched with, or labelled near, the bait; the list need not be complete.

The chains behind the UniProt entries cited, without tags or fusion partners. Residues count along the entry.
UniProt P01027, residues 671-748: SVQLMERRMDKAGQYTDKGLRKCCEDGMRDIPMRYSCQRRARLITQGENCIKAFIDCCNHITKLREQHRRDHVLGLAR
UniProt Q91VN6: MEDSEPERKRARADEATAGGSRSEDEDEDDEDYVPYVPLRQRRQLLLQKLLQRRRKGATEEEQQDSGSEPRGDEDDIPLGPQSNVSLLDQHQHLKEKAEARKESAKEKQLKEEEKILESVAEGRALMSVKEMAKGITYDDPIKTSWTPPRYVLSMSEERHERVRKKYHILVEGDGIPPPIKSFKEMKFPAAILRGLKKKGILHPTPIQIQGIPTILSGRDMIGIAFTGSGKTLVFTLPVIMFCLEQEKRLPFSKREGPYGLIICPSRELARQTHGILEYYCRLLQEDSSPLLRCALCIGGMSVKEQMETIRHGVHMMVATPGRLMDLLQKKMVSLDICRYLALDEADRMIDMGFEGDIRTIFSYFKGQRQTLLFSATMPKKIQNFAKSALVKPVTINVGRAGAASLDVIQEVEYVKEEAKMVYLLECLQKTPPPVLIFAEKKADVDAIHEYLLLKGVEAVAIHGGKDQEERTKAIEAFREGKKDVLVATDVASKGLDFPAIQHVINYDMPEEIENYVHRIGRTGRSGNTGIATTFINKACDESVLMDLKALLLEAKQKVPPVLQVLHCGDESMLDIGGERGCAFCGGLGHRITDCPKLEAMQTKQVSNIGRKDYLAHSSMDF
UniProt P09103, residues 20-509: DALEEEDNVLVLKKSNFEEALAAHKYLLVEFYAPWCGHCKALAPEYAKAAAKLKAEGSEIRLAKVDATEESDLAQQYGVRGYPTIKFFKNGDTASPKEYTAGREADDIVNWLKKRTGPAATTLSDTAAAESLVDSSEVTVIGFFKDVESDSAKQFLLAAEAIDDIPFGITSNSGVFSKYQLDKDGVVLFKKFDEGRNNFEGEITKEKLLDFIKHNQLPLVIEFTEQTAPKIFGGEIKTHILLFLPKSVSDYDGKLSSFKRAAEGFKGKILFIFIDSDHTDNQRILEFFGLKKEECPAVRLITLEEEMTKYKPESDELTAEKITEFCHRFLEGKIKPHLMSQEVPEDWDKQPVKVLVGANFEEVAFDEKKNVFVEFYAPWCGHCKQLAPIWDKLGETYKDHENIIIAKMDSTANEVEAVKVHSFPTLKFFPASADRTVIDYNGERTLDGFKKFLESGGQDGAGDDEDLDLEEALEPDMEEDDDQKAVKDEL

Biological target: GST-C3a (UniProt P01027)
Assay: affinity purification with mass spectrometry; GST pull-down: resin reacted first with the bacterial lysate holding GST-C3a, then with membrane proteins of bEnd3 cells; eluted with 20 mM reduced glutathione; LC-MS (Q Exactive); controls: GST with membrane proteins, GST-C3a with lysis buffer; only the target purified

binding	Substance
binds	Ddx41 (from UniProt Q91VN6 1-622)
binds	P4hb (from UniProt P09103 20-509)
